{"source": "PubChem BioAssay AID1053209 (Peter MacCallum Cancer Centre, 2014)", "test": "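Gene losses that combine with doxorubicin to kill mouse bone cancer cells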 (follow-up of hits)", "cell system": "mouse primary osteosarcoma cells", "reagents": "single siRNA against mouse genes, 25 nM (text also states 40 nM)", "timing": "about 120 h (48 h before drug, then 72 h with drug)", "challenge": "doxorubicin 100 nM (about IC30-40), added 48 h after transfection, for 72 h", "measurement": "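Viability measured by ATP luminescence with and without doxorubicin, each replicate scaled to non-targeting siRNA NT1, averaged over two replicates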", "direction": "viability with doxorubicin, vs NT1: higher = more viable cells under doxorubicin; viability without drug, vs NT1: higher = more viable cells without drug", "hit rule": "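Active when doxorubicin viability is at most 0.7 of NT1 and drug-free viability lies between 0.7 and 1.1, class LC dox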", "note": "In all, the deposit lists about 1,580 reagents; this is a random part of them. 207 of all reagents (13%) were called active. 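Rows are single siRNAs; four siRNAs per gene were tested, a gene counting as confirmed only when at least two agree.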 Reagents against one gene are numbered here. Not all columns of the deposit are shown."}
{"gene symbol":"Gramd1a","reagent":1,"combined effect class":"low viability with and without drug","viability with doxorubicin, vs NT1":0.48,"viability without drug, vs NT1":0.52,"Call":"inactive"}
{"gene symbol":"Gramd1a","reagent":2,"combined effect class":"normal viability with and without drug","viability with doxorubicin, vs NT1":0.91,"viability without drug, vs NT1":0.96,"Call":"inactive"}
{"gene symbol":"Gramd1a","reagent":3,"combined effect class":"normal viability with and without drug","viability with doxorubicin, vs NT1":1,"viability without drug, vs NT1":0.98,"Call":"inactive"}
{"gene symbol":"Gramd1a","reagent":4,"combined effect class":"normal viability with and without drug","viability with doxorubicin, vs NT1":1.04,"viability without drug, vs NT1":1.02,"Call":"inactive"}
{"gene symbol":"Napsa","reagent":1,"combined effect class":"high viability only without drug","viability with doxorubicin, vs NT1":1,"viability without drug, vs NT1":1.11,"Call":"inactive"}
{"gene symbol":"Napsa","reagent":2,"combined effect class":"high viability only without drug","viability with doxorubicin, vs NT1":0.98,"viability without drug, vs NT1":1.13,"Call":"inactive"}
{"gene symbol":"Napsa","reagent":3,"combined effect class":"normal viability with and without drug","viability with doxorubicin, vs NT1":0.92,"viability without drug, vs NT1":0.99,"Call":"inactive"}
{"gene symbol":"Napsa","reagent":4,"combined effect class":"normal viability with and without drug","viability with doxorubicin, vs NT1":0.82,"viability without drug, vs NT1":0.76,"Call":"inactive"}
{"gene symbol":"Rps3a1","reagent":1,"combined effect class":"low viability with and without drug","viability with doxorubicin, vs NT1":0.11,"viability without drug, vs NT1":0.18,"Call":"inactive"}
{"gene symbol":"Rps3a1","reagent":2,"combined effect class":"low viability with and without drug","viability with doxorubicin, vs NT1":0.26,"viability without drug, vs NT1":0.26,"Call":"inactive"}
{"gene symbol":"Rps3a1","reagent":3,"combined effect class":"low viability with and without drug","viability with doxorubicin, vs NT1":0.21,"viability without drug, vs NT1":0.34,"Call":"inactive"}
{"gene symbol":"Rps3a1","reagent":4,"combined effect class":"low viability with and without drug","viability with doxorubicin, vs NT1":0.15,"viability without drug, vs NT1":0.48,"Call":"inactive"}

A stretch taken from the entries so far:
{"gene symbol":"Gramd1a","reagent":1,"combined effect class":"low viability with and without drug","viability with doxorubicin, vs NT1":0.48,"viability without drug, vs NT1":0.52,"Call":"inactive"}
{"gene symbol":"Gramd1a","reagent":2,"combined effect class":"normal viability with and without drug","viability with doxorubicin, vs NT1":0.91,"viability without drug, vs NT1":0.96,"Call":"inactive"}
